Test results as given in paper PMC12846431.
These are yes or no findings as the source states them, for the method shown. Tags and fused reporters may be left off the sequences shown.

B1: MBP-ICL4 (Serinc3 intracellular loop 4, 354–404, fused to MBP) (domain or fragment, UniProt Q13530 354-404)
chain: RTSTNSQVDKLTLSGSDSVILGDTTTSGASDEEDGQPRRAVDNEKEGVQYS

Biological target: MBP-Nef (HIV-1 NL4.3 Nef 26–206 fused to an N-terminal 6xHis-MBP tag) (HIV-1 (NL4.3)) (UniProt Q90VU7)
Assay: SEC; both purified

Molecule	binding
MBP-ICL1 (Serinc3 intracellular loop 1, 120–131, fused to MBP) (from UniProt Q13530 120-131) (domain or fragment)	no binding (tested: 0.5 mg each in 500 μL)
MBP-ICL2 (Serinc3 intracellular loop 2, 181–204, fused to MBP) (from UniProt Q13530 181-204) (domain or fragment)	no binding (tested: 0.5 mg each in 500 μL)
MBP-ICL3 (Serinc3 intracellular loop 3, 259–267, fused to MBP) (from UniProt Q13530 259-267) (domain or fragment)	no binding (tested: 0.5 mg each in 500 μL)
B1	no binding (tested: 0.5 mg each in 500 μL)
